## Screening data, single-dose tests

By UniProt entry, the sequences of proteins in these tests, tags left out. Residues count along the entry.
UniProt P9WPC5, whole entry: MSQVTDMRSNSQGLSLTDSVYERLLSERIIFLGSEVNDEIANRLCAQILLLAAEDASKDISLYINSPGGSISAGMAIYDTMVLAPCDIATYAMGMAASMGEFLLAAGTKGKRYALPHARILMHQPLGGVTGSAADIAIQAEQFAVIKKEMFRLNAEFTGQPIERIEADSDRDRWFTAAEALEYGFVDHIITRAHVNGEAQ
UniProt P9WPC3, whole entry partner: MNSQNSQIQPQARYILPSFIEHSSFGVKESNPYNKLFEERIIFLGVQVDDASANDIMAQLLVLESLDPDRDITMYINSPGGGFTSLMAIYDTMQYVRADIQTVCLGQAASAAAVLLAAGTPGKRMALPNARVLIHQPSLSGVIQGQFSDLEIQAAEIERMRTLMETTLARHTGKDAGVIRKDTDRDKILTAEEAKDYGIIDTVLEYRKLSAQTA
UniProt Q4DA54, 1-478: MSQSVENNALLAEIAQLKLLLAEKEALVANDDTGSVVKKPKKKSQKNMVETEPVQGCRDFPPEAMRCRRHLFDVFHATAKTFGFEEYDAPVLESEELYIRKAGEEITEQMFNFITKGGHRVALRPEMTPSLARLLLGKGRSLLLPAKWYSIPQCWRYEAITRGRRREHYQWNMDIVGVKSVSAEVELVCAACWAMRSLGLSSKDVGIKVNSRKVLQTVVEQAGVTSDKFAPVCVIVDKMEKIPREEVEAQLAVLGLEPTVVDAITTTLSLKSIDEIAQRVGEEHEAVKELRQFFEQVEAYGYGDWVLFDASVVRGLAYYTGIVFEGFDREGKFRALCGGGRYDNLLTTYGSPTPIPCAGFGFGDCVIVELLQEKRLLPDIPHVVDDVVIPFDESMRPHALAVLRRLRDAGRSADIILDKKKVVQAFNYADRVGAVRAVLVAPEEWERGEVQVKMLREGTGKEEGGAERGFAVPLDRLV
UniProt Q8IDJ8, 1-583: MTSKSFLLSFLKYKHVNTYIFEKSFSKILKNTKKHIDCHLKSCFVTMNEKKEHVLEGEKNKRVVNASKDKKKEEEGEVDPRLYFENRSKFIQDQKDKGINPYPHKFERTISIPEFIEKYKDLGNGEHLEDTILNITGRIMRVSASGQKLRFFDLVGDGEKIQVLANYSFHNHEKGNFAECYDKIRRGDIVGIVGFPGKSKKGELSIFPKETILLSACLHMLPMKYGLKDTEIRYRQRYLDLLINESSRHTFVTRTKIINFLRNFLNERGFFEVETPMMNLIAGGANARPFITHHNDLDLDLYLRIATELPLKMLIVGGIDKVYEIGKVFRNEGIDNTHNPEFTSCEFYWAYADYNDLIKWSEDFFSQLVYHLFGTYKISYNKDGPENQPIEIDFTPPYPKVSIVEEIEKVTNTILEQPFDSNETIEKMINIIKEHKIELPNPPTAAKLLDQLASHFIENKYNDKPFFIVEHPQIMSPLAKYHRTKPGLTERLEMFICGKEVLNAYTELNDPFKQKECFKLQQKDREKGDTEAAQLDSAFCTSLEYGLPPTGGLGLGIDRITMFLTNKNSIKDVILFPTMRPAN
UniProt P9WNZ1, whole entry: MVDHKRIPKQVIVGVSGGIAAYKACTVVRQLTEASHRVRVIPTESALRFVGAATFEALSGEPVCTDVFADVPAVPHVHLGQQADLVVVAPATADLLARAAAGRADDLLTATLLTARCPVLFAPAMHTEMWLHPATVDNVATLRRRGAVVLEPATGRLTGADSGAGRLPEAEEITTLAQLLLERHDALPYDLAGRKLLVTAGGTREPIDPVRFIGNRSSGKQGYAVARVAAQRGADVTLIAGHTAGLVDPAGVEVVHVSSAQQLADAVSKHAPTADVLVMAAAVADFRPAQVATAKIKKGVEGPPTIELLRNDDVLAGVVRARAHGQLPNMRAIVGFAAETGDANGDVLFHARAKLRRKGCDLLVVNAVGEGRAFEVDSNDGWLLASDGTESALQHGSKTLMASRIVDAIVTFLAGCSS
UniProt I6X8D2, whole entry: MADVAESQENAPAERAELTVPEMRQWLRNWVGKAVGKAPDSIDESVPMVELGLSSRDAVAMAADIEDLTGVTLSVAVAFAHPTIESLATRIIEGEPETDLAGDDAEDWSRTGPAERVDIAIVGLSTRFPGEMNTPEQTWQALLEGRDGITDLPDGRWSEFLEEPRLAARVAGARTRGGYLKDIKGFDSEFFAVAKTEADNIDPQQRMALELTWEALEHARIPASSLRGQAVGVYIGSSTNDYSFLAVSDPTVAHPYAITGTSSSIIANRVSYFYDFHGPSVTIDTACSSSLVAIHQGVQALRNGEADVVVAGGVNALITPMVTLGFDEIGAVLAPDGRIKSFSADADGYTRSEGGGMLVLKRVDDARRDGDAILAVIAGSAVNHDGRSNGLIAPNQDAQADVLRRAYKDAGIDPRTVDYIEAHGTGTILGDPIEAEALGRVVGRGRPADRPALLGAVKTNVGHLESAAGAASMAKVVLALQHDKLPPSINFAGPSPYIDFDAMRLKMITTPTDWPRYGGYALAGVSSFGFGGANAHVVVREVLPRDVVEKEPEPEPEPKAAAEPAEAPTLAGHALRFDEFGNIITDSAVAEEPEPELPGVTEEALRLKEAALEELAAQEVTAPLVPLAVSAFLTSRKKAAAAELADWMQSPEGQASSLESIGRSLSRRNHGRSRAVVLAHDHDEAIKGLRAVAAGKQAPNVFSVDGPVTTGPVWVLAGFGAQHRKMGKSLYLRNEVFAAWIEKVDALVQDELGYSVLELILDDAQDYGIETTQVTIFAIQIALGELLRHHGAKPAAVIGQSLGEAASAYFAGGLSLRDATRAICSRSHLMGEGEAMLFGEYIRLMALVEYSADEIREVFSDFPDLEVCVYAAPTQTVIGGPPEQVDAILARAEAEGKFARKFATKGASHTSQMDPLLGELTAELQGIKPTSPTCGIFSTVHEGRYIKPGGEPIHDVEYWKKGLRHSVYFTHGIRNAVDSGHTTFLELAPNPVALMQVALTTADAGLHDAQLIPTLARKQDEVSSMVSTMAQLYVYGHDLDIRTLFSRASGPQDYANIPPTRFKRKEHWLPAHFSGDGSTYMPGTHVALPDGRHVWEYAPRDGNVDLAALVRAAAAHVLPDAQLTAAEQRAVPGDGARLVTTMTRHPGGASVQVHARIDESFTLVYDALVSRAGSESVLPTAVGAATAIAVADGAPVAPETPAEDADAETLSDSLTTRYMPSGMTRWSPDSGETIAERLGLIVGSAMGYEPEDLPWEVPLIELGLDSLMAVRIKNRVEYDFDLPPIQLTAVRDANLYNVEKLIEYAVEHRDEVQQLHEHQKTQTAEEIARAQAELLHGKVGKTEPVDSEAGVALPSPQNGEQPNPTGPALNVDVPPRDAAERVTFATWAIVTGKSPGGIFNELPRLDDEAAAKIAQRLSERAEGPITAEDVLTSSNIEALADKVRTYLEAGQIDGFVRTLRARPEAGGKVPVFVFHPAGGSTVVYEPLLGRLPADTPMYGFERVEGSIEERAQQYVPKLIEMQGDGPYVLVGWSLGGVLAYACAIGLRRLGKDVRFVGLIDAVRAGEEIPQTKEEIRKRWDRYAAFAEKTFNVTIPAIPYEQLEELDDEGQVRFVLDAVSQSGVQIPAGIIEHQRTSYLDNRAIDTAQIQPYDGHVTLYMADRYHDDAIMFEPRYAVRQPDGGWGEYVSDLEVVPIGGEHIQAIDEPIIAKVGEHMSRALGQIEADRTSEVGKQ

ClpP1P2: 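ClpP1P2, Mycobacterium tuberculosis (UniProt P9WPC5 and UniProt P9WPC3). Protease assay of ClpP1P2, read by the AMC dye that it sets free. Compounds at 50 µM. Direction is inferred from only a few compounds that gave an IC50; most scored high, so higher reads as stronger inhibition. Most other retested compounds had strongly negative values. Size under these conditions: about 69,000 compounds, about 10 of them at 50% or above in at least one test.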
TcHisRS: 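Histidine-tRNA ligase, Trypanosoma cruzi CL Brener (UniProt Q4DA54). Enzyme assay of histidyl-tRNA synthetase; the read-out is not stated. Concentration: 30 µM. The record gives no direction; compounds that gave an IC50 in retests scored well above the rest, so higher reads as stronger inhibition. About 69,000 compounds were tested under these conditions; 0.045% (about 31) showed 50% or more at least once.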
PfKRS1: 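Lysine-tRNA ligase, Plasmodium falciparum 3D7 (UniProt Q8IDJ8). Enzyme assay of the cytosolic lysyl-tRNA synthetase in 384-well plates, read by luminescence. Concentration: 30 µM. Higher reads as stronger inhibition, judged from the few compounds that gave an IC50. Size under these conditions: about 69,000 compounds, about 49 of them at 50% or above in at least one test.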
CoaBC: 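Enzyme assay of CoaBC with a phosphate dye (Biomol Green) read at 650 nm. Target: Coenzyme A biosynthesis protein CoaBC, Mycobacterium tuberculosis (UniProt P9WNZ1). Tested at 30 µM. Higher reads as stronger inhibition, judged from the few compounds that gave an IC50. Most strong results did not repeat in a second test. Size under these conditions: about 67,000 compounds, about 40 of them at 50% or above in at least one test.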
Leishmania in macrophages: 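Cell assay of Leishmania donovani living inside macrophages; the read-out is not stated. Tested at 30 µM. The record gives no direction; compounds that gave an IC50 in retests scored well above the rest, so higher reads as stronger inhibition. Of about 69,000 compounds tested this way, about 1,000 (1.5%) reached 50% or more in at least one test.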
Pks13 thioesterase: 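Polyketide synthase Pks13, Mycobacterium tuberculosis (UniProt I6X8D2). Enzyme assay of the thioesterase domain of polyketide synthase 13; the read-out is not stated. Concentration: 30 µM. The record gives no direction; the compounds picked for IC50 retests had high values, so higher reads as stronger inhibition. Size under these conditions: about 67,000 compounds, about 300 of them at 50% or above in at least one test.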

Each number is a percent effect as filed.
The controls that fix the scale are not given in the record; negative values are as filed.
This is an unselected part of the compounds tested.

- CCCC1c2ccccc2CCN1CCS(C)(=O)=O (stereo not shown) | ClpP1P2: -11.6%; TcHisRS: 2.762%; PfKRS1: -2.505%; CoaBC: 1.656%; Leishmania in macrophages: 30.54%; Pks13 thioesterase: -17.63%
- COC(=O)[C@@H]1Cc2ncn(C)c2CN1S(=O)(=O)c1ccc(C)cc1 | ClpP1P2: -13.85%; TcHisRS: -3.483%; PfKRS1: 3.74%; CoaBC: 12.38%; Leishmania in macrophages: 10.62%; Pks13 thioesterase: -27.99%
- Cc1cc(CCC(=O)Nc2nncs2)nc(C2CCCN2)n1 (stereo not shown) | ClpP1P2: 7.053%; TcHisRS: 5.319%; PfKRS1: 8.361%; CoaBC: -0.4902%; Pks13 thioesterase: -12.16%
- COc1ccccc1CN1CC(OC)CN(C(=O)CC(C)C)CC1=O (stereo not shown) | ClpP1P2: -1.996%; TcHisRS: 4.624%; PfKRS1: 2.555%; CoaBC: 1.84%; Leishmania in macrophages: 9.679%; Pks13 thioesterase: 14.68%
- COc1ccnc(NC(Cc2ccccc2)C(N)=O)n1 (stereo not shown) | ClpP1P2: 11.67%; TcHisRS: 0%; PfKRS1: 2.737%; CoaBC: 4.713%; Leishmania in macrophages: 6.575%; Pks13 thioesterase: -15.55%
- COC(=O)C(NC(=O)CCc1ccco1)c1cc(F)ccc1F (stereo not shown) | ClpP1P2: -20.78%; TcHisRS: 6.857%; PfKRS1: 1.77%; CoaBC: -0.7168%; Leishmania in macrophages: 14.48%; Pks13 thioesterase: -0.9243%
- CC[C@H]1CN2CC[C@H]1C[C@@H]2CNCc1cccc(C#N)c1 | ClpP1P2: 11.91%; TcHisRS: 12.87%; PfKRS1: 2.63%; CoaBC: -22.35%
- Cc1noc(C)c1CN1CCOC2(CCCN(c3ccccn3)C2)C1 (stereo not shown) | ClpP1P2: -7.98%; TcHisRS: 5.882%; PfKRS1: 8.594%; CoaBC: 7.166%; Leishmania in macrophages: -2.653%; Pks13 thioesterase: -42.69%
- CN(Cc1ccncn1)C(=O)c1cccc(CCC(C)(C)O)c1 | ClpP1P2: -8.987%; TcHisRS: 10.06%; PfKRS1: 2.358%; CoaBC: 1.028%; Leishmania in macrophages: -7.107%; Pks13 thioesterase: -9.965%
- CC(CO)CN(Cc1ccccc1)Cc1c[nH]cn1 (stereo not shown) | ClpP1P2: -7.158%; TcHisRS: 0%; PfKRS1: 1.281%; CoaBC: -3.302%; Leishmania in macrophages: -3.358%; Pks13 thioesterase: -6.085%
- CCOC1COC2(CCN(S(=O)(=O)c3cccc(C)c3)CC2)C1 (stereo not shown) | ClpP1P2: -2.788%; TcHisRS: 9.244%; PfKRS1: 6.532%; CoaBC: -6.288%; Leishmania in macrophages: 23.7%; Pks13 thioesterase: -13.51%
- Cn1cc(N2C(=O)C[C@@H]3[C@@H]2CCN3C(=O)c2ccco2)cn1 | ClpP1P2: -6.894%; TcHisRS: 3.093%; PfKRS1: 6.649%; CoaBC: 1.724%
- O=C1CCCc2cc(S(=O)(=O)NCc3ccccn3)ccc2N1 | ClpP1P2: -2.713%; TcHisRS: -1.911%; PfKRS1: 3.053%; Leishmania in macrophages: 10.88%; Pks13 thioesterase: -16.38%

Repeated from the top, 2 entries:

* CCCC1c2ccccc2CCN1CCS(C)(=O)=O (stereo not shown) | ClpP1P2: -11.6%; TcHisRS: 2.762%; PfKRS1: -2.505%; CoaBC: 1.656%; Leishmania in macrophages: 30.54%; Pks13 thioesterase: -17.63%
* COC(=O)[C@@H]1Cc2ncn(C)c2CN1S(=O)(=O)c1ccc(C)cc1 | ClpP1P2: -13.85%; TcHisRS: -3.483%; PfKRS1: 3.74%; CoaBC: 12.38%; Leishmania in macrophages: 10.62%; Pks13 thioesterase: -27.99%

Data taken from ChEMBL document CHEMBL3988442, “University of Dundee, Small-Polar-MMV Screening Library” (2021).